Results published in article PMC4267777.

Experiments:
[1] = target: P9/P6 portal complex at the unique vertex of bacteriophage PRD1 (bacteriophage PRD1); assay: cryo-EM structure; mature wt PRD1 virion, purified particles, single particle reconstruction without icosahedral symmetry imposition at 12 Å; crystal structures of P3 and P31 docked; proteins assigned by comparison with procapsid and mutant particles
[2] = target: packaging efficiency factor P6 of bacteriophage PRD1 (bacteriophage PRD1); assay: as above

| Binder | binding [1] | binding [2] |
| --- | --- | --- |
| major capsid protein P3 of bacteriophage PRD1 (protein, UniProt P22535 1-395) MAQVQQLTPAQQAALRNQQAMAANLQARQIVLQQSYPVIQQVETQTFDPANRSVFDVTPANVGIVKGFLVKVTAAITNNHATEAVALTDFGPANLVQRVIYYDPDNQRHTETSGWHLHFVNTAKQGAPFLSSMVTDSPIKYGDVMNVIDAPATIAAGATGELTMYYWVPLAYSETDLTGAVLANVPQSKQRLKLEFANNNTAFAAVGANPLEAIYQGAGAADCEFEEISYTVYQSYLDQLPVGQNGYILPLIDLSTLYNLENSAQAGLTPNVDFVVQYANLYRYLSTIAVFDNGGSFNAGTDINYLSQRTANFSDTRKLDPKTWAAQTRRRIATDFPKGVYYCDNRDKPIYTLQYGNVGFVVNPKTVNQNARLLMGYEYFTSRTELVNAGTISTT | binds | – |
| packaging ATPase P9 of bacteriophage PRD1 (protein, UniProt P27381 1-227) MTIRMPNDRQRILVLGKTGTGKTCAAVWHLSQKDFKRKAWIVLNHKGDDLIDSIEGANHVDLNFRPKKPGLYIYHPIPDVDDAEVTQLLWDIHAMGDIGVYVDEGYMIPNRDPAFQALLTQGRSKKIPMIILSQRPVWLTRFAISESDFFQIFQLGDQRDRQTVQGFVPVDLEKLMQAPVNTVPALKKFHSIYYDVGANNCVIMTPVPTADAVLARFDLGKKRKQTL | – | binds |

No constants are given. Whether binding was seen depends on the method and setting. A result given as binding can be weak or reduced; the word gives no strength.
